From paper PMC4550056 come the findings set out here.

The chains behind the UniProt entries cited, without tags or fusion partners. Residues count along the entry.
UniProt Q92547, residues 444-991: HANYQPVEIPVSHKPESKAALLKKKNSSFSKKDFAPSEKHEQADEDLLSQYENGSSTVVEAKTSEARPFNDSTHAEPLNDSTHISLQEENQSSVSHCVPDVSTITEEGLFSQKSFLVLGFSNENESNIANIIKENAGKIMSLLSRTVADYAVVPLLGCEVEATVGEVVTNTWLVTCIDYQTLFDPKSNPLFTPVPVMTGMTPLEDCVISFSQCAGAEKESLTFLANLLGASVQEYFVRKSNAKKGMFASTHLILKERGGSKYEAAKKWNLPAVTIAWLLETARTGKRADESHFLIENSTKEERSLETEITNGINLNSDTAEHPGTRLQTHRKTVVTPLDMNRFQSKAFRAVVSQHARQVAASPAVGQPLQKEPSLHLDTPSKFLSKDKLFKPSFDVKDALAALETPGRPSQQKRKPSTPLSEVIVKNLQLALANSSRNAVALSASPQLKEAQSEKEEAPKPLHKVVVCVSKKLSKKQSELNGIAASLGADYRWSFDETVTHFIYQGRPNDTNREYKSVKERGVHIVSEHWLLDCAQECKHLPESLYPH

These are yes or no findings as the source states them, for the method shown. In cells and extracts the contact can be indirect. Some binding calls cover weakened binding; strength is not graded here. Tags and fused reporters may be left off the sequences shown.

In this test the target is T1, c-Myc-tagged human mutY homolog (c-Myc-hMYH), full length (human) (UniProt Q9UIF7).
T1 sequence: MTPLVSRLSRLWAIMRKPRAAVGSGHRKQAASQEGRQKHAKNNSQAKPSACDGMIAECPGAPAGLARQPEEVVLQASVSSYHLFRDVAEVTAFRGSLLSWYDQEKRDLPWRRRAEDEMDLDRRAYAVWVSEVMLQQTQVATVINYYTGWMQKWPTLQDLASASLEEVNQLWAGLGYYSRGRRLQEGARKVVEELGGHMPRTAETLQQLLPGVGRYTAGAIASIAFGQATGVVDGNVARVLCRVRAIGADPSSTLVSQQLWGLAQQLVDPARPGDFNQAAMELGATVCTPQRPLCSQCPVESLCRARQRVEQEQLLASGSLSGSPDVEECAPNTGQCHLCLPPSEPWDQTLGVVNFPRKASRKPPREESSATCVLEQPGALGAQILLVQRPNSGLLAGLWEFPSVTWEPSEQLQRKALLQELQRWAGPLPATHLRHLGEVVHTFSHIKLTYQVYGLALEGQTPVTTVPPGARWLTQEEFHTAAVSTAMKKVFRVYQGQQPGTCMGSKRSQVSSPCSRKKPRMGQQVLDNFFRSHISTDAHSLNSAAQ
The test can be described thus: co-IP; HEK293 cells co-transfected; lysates precipitated with anti-c-Myc antibody and protein A/G PLUS-agarose beads; blotted with anti-GST and anti-c-Myc.

As for “GST-tagged D2 region of hTopBP1 (BRCT 4-6, amino acids 444-991) (from UniProt Q92547 444-991) (domain or fragment)”, the binding entry is reported as “binds”.
